The record followed here is article PMC6922451.

Sequences of proteins named here, by UniProt entry; tags and fusion partners are left off. A change or cut given only in a name is not applied to a line headed by its entry.
UniProt W7XGG1: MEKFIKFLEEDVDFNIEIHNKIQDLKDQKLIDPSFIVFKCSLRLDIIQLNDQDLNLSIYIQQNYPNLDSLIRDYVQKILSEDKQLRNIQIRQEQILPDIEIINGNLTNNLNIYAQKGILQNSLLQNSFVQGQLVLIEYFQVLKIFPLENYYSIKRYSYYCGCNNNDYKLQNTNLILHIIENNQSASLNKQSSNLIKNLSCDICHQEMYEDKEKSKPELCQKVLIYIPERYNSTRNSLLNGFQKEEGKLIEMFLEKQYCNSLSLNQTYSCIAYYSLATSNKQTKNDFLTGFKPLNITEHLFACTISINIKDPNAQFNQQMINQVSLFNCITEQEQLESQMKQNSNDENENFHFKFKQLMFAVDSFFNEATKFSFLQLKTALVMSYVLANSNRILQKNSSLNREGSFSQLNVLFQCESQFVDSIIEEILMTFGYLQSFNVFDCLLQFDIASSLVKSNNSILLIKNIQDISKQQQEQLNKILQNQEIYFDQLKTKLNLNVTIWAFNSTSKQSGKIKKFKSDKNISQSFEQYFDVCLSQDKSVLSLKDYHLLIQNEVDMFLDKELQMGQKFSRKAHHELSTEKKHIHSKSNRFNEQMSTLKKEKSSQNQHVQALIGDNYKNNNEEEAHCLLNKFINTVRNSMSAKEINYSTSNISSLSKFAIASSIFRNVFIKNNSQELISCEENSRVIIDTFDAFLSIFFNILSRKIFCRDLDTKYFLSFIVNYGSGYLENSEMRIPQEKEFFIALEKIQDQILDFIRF

These are yes or no findings as the source states them, for the method shown. Binding seen in cells or lysates may run through a third protein. A yes stands for co-enrichment or nearness to the bait. Other partners may have been found.

The test deals with Mcmd1-HA (MCM Domain1, C-terminal hemagglutinin tag) (Tetrahymena thermophila) (UniProt Q23YR0). In words: affinity purification with mass spectrometry; lysate of conjugating cells harvested ~3.5 h after meiotic induction (maximum nuclear elongation), ice-cold Tris lysis buffer, Dounce homogenizer, filtered; incubated with anti-HA affinity gel for 2 h at 4 °C; eluted proteins analysed by mass spectrometry.

Turning to “Pamd1 (Partner of Mcmd1) (from UniProt W7XGG1)”, the binding result is recorded as “binds”.
